The values that follow come from article doi:10.1101/2022.01.20.477147.

In assay [1] the target is SARS-CoV-2 Nsp6, 2xStrep-tagged (SARS-CoV-2) (UniProt P0DTD1). The assay can be described thus: affinity purification with mass spectrometry.
Assay [2] deals with SARS-CoV-2 Nsp8, 2xStrep-tagged (SARS-CoV-2) (UniProt P0DTD1). The assay can be described thus: affinity purification with mass spectrometry.

No constants are given. Whether binding was seen depends on the method and setting. In cells and extracts the contact can be indirect. A yes stands for co-enrichment or nearness to the bait. Other partners may have been found.

As for “ATPase subunit ATP5A1 (from UniProt P25705 44-553)”, the binding entry in assay [1] and in assay [2] was “binds” each time.
“ATPase subunit ATP5B (from UniProt P06576 48-529)”: the binding result in assay [1] and in assay [2] was “binds” in each case.
